One sequence from article PMC12147125 can be followed below.

Chains of the proteins cited; added tags and fusions are not shown. Lines headed by an entry give the natural chain unless they say otherwise; changes in a name come on top.
UniProt P04390: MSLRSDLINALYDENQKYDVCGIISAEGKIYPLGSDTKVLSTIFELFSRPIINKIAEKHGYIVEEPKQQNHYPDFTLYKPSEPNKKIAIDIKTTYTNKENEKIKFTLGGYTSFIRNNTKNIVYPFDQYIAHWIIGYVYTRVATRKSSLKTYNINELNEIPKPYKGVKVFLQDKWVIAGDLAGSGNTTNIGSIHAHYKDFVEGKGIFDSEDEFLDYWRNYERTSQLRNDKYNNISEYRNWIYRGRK

The exact form of at least one protein or probe is not confirmed. At least one verdict rests on a figure or table, not on a statement of the authors.

The data set deals with EcoRV restriction endonuclease (UniProt P04390). Put plainly: equilibrium binding (KA; assay not stated in material). The following applies: DEER: 175 uM DNA, 400 uM Cu(II), 200 uM EcoRV dimer, 50 mM NEM pH 7.4, 40% d8-glycerol in D2O (protein stock with 100 mM NaCl), flash frozen, recombinant protein.

With “GCAAAGATATCTTTCG (double strand) [EcoRV site 16-mer GCAAAgatatcTTTCG]”, the binding result by setting is: (Lu(III), KA enhanced relative to metal-free KA,0, values not in material) “binds”; (no metal (reference KA,0, value truncated in material)) “binds”.
